{"source": "paper PMC3795565", "substrate": "SPN C-terminal domain (SPNct; residues 193–451) (S. pyogenes M3) (UniProt A0A0H2)", "assay": "crystal structure; purified SPNct-IFS complex after α-chymotrypsin proteolysis; sitting drop at 295 K, 20% tacsimate pH 4.0, 20% PEG 3350; Se SAD, refined at 1.70 Å; two heterodimeric complexes in the asymmetric unit; both purified", "note": "These are yes or no findings as the source states them, for the method shown. A result given as binding can be weak or reduced; the word gives no strength.", "data": [{"binder": "immunity factor for SPN (IFS), full length (residues 1–161) (protein, UniProt Q2VJ58 1-161) MYKVPKGLEHYQKMFQKEVTVNDLKKYLIGSDKEYRITRRDSYMGDISDPEVILEYGVYPAFIKGYTQLKANIEEALLEMSNSGQALDIYQAVQTLNAENMLLNYYESLPFYLNRQSILANITKALKDAHIREAMAHYKLGEFAHYQDTMLDMVERTIETF", "values": [{"measurement": "binding", "value": "binds"}]}]}
